# Reference: the supplement of paper PMC11006884
# The chains behind the UniProt entries cited, without tags or fusion partners. Where a name states a change or a piece, a line headed by the entry shows the natural chain unless it says otherwise.
# UniProt P36873, whole entry, looked up: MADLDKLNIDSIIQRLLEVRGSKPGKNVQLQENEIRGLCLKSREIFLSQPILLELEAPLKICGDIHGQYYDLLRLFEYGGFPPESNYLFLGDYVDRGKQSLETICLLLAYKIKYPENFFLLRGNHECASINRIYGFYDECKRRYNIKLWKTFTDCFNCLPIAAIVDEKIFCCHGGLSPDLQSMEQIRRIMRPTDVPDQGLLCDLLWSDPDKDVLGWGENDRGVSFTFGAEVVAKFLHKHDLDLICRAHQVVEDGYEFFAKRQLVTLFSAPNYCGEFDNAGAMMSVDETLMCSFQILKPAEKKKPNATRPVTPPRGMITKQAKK
# UniProt P33240: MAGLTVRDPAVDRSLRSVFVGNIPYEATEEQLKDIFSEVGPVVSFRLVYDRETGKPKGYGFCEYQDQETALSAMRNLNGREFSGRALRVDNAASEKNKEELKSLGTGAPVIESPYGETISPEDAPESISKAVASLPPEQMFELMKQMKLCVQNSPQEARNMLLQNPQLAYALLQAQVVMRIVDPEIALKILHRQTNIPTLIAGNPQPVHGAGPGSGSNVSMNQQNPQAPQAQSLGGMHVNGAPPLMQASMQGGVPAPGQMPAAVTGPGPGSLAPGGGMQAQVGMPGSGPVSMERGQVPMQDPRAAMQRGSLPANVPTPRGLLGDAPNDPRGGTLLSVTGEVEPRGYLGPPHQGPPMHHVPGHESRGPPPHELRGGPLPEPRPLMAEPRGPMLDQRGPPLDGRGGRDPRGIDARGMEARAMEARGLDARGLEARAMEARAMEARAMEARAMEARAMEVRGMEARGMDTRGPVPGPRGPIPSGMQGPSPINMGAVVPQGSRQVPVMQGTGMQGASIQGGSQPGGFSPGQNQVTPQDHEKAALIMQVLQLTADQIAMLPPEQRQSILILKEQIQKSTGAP
# UniProt P35221: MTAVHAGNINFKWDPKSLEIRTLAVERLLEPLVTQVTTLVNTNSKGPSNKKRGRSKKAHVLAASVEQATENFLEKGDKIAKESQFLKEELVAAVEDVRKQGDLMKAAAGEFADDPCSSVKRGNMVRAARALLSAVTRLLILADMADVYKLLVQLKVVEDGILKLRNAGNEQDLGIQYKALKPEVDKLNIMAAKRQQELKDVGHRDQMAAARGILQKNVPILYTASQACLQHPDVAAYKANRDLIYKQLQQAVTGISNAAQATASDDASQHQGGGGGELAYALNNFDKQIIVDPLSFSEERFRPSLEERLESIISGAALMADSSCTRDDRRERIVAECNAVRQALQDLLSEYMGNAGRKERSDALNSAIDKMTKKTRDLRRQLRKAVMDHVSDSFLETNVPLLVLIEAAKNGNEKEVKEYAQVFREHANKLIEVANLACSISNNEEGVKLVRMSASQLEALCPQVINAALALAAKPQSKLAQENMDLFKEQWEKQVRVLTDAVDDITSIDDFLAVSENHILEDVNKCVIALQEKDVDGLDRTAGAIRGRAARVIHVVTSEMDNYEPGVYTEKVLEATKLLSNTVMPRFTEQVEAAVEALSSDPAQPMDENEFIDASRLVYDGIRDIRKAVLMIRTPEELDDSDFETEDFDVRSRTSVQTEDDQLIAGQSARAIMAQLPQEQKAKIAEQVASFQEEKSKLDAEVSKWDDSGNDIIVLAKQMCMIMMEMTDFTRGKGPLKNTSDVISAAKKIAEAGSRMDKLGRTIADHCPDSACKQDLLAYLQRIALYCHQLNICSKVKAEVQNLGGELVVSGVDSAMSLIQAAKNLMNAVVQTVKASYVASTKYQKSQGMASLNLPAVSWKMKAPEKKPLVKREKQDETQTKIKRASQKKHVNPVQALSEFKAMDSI
# UniProt P31949: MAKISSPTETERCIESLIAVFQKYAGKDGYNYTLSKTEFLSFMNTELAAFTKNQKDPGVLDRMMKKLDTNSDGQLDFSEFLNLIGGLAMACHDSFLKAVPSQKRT
# UniProt P35998: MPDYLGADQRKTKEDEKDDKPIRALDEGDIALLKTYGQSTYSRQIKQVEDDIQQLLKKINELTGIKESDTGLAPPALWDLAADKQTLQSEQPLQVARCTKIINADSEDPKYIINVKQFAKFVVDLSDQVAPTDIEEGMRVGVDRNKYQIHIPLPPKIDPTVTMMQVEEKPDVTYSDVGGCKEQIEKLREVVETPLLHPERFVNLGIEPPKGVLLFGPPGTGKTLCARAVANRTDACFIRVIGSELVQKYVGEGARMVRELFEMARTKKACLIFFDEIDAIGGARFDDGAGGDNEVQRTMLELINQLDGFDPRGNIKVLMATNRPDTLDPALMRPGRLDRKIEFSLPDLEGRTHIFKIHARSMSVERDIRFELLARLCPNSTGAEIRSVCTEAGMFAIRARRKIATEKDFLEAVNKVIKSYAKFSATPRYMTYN
# UniProt P31270: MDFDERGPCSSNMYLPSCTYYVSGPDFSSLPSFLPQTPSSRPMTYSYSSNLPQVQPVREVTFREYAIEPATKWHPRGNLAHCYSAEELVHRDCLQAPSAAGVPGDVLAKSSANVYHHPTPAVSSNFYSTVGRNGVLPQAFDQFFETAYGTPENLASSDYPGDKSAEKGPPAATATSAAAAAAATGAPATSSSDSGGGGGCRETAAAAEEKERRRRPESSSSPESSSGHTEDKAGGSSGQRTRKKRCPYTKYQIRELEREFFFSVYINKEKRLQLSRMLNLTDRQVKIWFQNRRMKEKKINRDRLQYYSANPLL
# UniProt P41440: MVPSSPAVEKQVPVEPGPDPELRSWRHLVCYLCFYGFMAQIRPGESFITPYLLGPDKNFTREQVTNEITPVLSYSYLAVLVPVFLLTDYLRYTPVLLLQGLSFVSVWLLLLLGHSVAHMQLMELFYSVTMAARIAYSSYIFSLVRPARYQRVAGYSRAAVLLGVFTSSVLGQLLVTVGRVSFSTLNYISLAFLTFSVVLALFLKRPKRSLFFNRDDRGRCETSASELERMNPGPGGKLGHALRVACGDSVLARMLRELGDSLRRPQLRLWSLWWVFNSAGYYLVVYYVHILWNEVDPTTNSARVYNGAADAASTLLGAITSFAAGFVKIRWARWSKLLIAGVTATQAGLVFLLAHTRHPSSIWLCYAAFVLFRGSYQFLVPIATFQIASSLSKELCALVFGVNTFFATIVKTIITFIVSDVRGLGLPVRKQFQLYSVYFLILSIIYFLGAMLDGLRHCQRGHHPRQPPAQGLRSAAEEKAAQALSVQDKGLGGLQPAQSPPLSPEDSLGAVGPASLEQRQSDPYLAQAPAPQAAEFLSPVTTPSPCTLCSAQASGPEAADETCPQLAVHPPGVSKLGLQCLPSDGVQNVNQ
# UniProt P34932: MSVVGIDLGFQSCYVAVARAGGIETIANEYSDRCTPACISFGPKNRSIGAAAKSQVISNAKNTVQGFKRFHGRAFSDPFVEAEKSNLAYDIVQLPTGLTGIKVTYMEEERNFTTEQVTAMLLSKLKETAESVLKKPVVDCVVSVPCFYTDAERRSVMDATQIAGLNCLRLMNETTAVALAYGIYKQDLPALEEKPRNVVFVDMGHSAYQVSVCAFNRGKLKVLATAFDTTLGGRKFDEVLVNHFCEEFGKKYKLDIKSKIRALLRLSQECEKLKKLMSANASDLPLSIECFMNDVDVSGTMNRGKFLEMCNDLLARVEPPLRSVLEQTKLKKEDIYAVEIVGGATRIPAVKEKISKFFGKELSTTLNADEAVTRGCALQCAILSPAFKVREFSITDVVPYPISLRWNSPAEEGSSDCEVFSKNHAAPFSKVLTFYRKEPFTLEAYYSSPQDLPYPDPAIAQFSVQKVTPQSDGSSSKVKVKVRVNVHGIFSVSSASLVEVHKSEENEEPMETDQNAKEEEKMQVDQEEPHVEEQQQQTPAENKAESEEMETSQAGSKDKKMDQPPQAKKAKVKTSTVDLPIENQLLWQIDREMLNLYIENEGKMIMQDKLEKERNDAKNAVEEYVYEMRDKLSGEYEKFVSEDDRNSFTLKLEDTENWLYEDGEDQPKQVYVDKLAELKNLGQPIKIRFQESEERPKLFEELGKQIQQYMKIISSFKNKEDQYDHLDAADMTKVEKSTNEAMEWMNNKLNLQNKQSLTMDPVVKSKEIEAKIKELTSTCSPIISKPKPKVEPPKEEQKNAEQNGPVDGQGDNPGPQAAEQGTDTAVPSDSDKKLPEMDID
# UniProt P31948, whole entry, looked up: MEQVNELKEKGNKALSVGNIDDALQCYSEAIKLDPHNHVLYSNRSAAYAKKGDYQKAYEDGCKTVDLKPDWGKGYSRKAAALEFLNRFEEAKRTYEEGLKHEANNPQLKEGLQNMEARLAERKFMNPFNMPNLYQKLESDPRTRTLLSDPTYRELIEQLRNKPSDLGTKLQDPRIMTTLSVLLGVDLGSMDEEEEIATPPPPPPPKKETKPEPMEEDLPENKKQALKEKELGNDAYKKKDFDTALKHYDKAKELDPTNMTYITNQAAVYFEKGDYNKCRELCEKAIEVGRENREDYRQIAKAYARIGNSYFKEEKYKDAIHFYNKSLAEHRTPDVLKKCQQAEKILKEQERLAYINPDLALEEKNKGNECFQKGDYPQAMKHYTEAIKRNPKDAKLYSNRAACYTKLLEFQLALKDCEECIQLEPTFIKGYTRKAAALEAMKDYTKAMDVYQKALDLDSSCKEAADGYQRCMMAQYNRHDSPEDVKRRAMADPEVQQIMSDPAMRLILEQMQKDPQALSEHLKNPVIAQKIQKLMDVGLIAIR
# UniProt P31939: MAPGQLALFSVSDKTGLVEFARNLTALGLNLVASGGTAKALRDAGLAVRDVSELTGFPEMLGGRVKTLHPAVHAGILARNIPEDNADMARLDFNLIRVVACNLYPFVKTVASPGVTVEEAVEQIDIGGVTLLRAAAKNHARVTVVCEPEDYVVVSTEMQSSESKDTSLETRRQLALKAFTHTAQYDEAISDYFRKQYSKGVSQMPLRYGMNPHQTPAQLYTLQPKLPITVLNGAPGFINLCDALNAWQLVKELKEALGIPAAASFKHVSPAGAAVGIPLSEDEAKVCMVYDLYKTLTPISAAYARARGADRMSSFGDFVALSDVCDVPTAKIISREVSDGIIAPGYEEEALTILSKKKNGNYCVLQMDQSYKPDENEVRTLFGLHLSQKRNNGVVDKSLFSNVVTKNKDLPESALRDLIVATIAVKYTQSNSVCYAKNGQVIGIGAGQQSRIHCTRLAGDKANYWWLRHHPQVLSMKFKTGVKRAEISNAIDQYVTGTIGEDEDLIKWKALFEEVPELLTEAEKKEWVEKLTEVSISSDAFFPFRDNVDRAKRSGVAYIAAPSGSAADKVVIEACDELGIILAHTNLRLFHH
# UniProt P40938, whole entry, looked up: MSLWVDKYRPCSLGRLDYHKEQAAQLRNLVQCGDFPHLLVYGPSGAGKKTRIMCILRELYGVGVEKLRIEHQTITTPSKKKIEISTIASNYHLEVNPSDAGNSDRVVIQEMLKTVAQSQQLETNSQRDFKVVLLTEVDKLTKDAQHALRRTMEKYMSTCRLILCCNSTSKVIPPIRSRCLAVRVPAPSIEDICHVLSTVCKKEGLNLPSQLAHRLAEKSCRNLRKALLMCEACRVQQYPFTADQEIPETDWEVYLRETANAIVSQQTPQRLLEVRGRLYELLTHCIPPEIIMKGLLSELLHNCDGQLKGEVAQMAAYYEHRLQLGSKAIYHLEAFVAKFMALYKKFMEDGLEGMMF
# UniProt P33176: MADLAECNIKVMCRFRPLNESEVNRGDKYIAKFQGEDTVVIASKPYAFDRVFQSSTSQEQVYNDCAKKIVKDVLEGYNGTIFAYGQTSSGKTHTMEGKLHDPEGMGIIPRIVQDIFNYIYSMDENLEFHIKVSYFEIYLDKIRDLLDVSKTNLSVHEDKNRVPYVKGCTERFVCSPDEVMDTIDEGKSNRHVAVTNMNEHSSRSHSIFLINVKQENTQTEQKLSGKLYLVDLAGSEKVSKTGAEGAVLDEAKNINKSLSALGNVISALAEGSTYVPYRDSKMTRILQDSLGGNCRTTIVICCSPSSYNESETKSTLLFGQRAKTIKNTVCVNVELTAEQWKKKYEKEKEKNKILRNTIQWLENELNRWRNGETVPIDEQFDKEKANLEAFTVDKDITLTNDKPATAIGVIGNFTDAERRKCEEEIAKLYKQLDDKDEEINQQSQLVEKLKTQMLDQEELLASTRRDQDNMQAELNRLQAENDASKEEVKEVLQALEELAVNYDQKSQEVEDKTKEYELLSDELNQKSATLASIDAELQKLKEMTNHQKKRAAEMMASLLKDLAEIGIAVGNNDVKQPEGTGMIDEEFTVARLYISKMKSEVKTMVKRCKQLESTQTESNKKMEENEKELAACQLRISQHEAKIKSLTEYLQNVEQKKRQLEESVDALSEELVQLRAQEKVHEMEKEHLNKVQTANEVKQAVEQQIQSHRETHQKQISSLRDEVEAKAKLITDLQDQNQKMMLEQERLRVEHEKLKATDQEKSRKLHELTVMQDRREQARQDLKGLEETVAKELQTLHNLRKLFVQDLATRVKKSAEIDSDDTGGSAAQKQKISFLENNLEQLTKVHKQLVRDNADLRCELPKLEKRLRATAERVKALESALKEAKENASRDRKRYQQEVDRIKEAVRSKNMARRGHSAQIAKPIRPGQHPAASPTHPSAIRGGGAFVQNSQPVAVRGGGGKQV
# This list holds what a sample rich in targets with a hit left over. This is a noisy data set. Only a part is listed here, and it is no random draw.
# Compound: COC(=O)/C=C/c1ccccc1 [methyl cinnamate]
# Assay: log2 ratio of iodoacetamide-alkyne labeling of the cysteine site, DMSO over compound (competition); higher = stronger covalent engagement of the cysteine by the compound, active = 1 or more
# Settings: 500 µM; treatment time 1 h; system: HEK293T cell lysate
# How it was run: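 HEK293T lysate at 2 mg/mL was treated with vehicle or electrophile (500 µM) for 1 h at ambient temperature, then labelled with iodoacetamide alkyne (1 h), clicked to sCIP-TMT reagents, pooled, digested with trypsin overnight at 37 °C, enriched on streptavidin and eluted with acid. Peptides were analysed by Orbitrap Eclipse LC-MS/MS with FAIMS and quantified in FragPipe, using duplicate channels and three replicates, with cysteines quantified in only one replicate excluded. The log2 competition ratio for each cysteine is the mean control-channel reporter intensity divided by the mean compound-channel reporter intensity.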
row,Target,log2 ratio of iodoacetamide-alkyne labeling
1,PPP1CC C62 (UniProt P36873),inactive: 0.353
2,COIL C170 (UniProt P38432),inactive: 0.296
3,CSTF2 C150 (UniProt P33240),inactive: 0.518
4,HNRNPH1 C22 (UniProt P31943),inactive: 0.0581
5,UniProt P41214_C489,inactive: 0.201
6,TMPO C280 (UniProt P42166),inactive: 0.153
7,CTNNA1 C324 (UniProt P35221),inactive: 0.0518
8,LRPPRC C863 (UniProt P42704),inactive: -0.167
9,SDHA C89 (UniProt P31040),inactive: -0.0124
10,S100A11 C91 (UniProt P31949),inactive: 0.212
11,PSMC2 C270 (UniProt P35998),inactive: -0.0297
12,NUP214 C728 (UniProt P35658),inactive: 0.314
13,UniProt P31270_C93,inactive: 0.201
14,RPL22 C25 (UniProt P35268),inactive: 0.0333
15,SLC19A1 C580 (UniProt P41440),inactive: 0.127
16,PDIA3 C406 (UniProt P30101),inactive: 0.154
17,HSPA4 C245 (UniProt P34932),inactive: 0.0112
18,FUS C444 (UniProt P35637),inactive: 0.0151
19,STIP1 C417 (UniProt P31948),inactive: 0.0788

# Already shown: entries from further up.
row,Target,log2 ratio of iodoacetamide-alkyne labeling
12,NUP214 C728 (UniProt P35658),inactive: 0.314
13,UniProt P31270_C93,inactive: 0.201

# Further records follow:

row,Target,log2 ratio of iodoacetamide-alkyne labeling
1,MTOR C674 (UniProt P42345),inactive: 0.178
2,TIA1 C33 (UniProt P31483),inactive: 0.194
3,POLR2B C224 (UniProt P30876),inactive: 0.132
4,STIP1 C370 (UniProt P31948),inactive: 0.194
5,TTK C465 (UniProt P33981),inactive: 0.0813
6,MDH2 C285 (UniProt P40926),inactive: 0.373
7,ATIC C101 (UniProt P31939),inactive: 0.0905
8,MATR3 C230 (UniProt P43243),inactive: 0.304
9,LRPPRC C330 (UniProt P42704),inactive: -0.0472
10,RFC3 C11 (UniProt P40938),inactive: 0.216
11,SHMT1 C110 (UniProt P34896),inactive: -0.0346
12,TMPO C341 (UniProt P42166),inactive: 0.33
13,SHMT1 C96 (UniProt P34896),inactive: -0.00593
14,LONP1 C704 (UniProt P36776),inactive: -0.12
15,UQCRC1 C154 (UniProt P31930),inactive: 0.134
16,SHMT2 C119 (UniProt P34897),inactive: -0.0143
17,KIF5B C7 (UniProt P33176),inactive: 0.138
18,STIP1 C339 (UniProt P31948),inactive: 0.253
